Assay results from PubChem BioAssay AID504467 (National Center for Advancing Translational Sciences (NCATS), 2011).
Out of some 330,000 compounds screened, about 7,700 (2.3%) were called active. This list was built around the results that the source calls inconclusive (neither active nor inactive); the mix of calls is not that of the screen. The call rests on the fitted dose curve; in most records, active means well fitted inhibition curve with a large enough effect; inconclusive means small, poorly fitted or top-dose-only effect, or effect the other way; inactive means flat fitted curve, though single readings scatter. Where the call is inconclusive, the potency comes from a doubtful curve fit.

Assay: qHTS screen for small molecules that inhibit ELG1-dependent DNA repair in human embryonic kidney (HEK293T) cells expressing luciferase-tagged ELG1; further: nearly all actives have a fitted effect of over 55% in size
Details: HEK293T ELG1-luciferase reporter, luminescence, 16 h, DNA damage induced by 5-fluorouridine; series mostly up to 46.1 µM
Procedure, shortened: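 Step one: seed 2,000 cells per well. Step two: pin-transfer compound or DMSO alongside 5-fluorouridine. Step three: incubate 16 hr, 37 °C, 5% CO2. Step four: add ONE-Glo, wait 30 min, read luminescence.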
Potency means the concentration at half of the fitted maximal effect.

Structure (SMILES) | Potency
CCOC(=O)c1c(NC(C)=O)sc2c(OCC(O)CN(CC)CC)c(Br)ccc12 (stereo not drawn) | inconclusive: 29.1 µM [activator, single point]
Cc1nc2sc3c(c2c2nnc(SCC(=O)NCc4ccco4)n12)CCCC3 | inconclusive: 29.1 µM [inhibitor, single point]
CC(C)(C)c1ccc(C(=O)NNC(=O)CNC(=O)c2cccs2)cc1 | inconclusive: 23.1 µM [activator, single point]
Cc1cccc(C)c1NC(=O)c1cccc(COc2cc(Cl)ccc2Cl)c1 | inconclusive: 16.4 µM [activator, single point]
Cc1cc(NC(=O)c2ccc(Cl)c(S(=O)(=O)N3CCCCC3)c2)no1 | inconclusive: 18.3 µM [inhibitor, single point]
Cc1cc(/C=C2\SC(=S)NC2=O)c(C)n1-c1cccc(O)c1 | inconclusive: 6.51 µM [activator, partial curve]
CCOC(=S)SCC(=O)Nc1nc(-c2ccc(Br)cc2)cs1 | inconclusive: 18.4 µM [activator, partial curve, poor fit]
CCCCSc1nnc2nc(C)cc(C)n12 | inconclusive: 20.6 µM [activator, single point]
CCn1c(-c2ccc(-c3ccccc3)cc2)c[nH]c1=S | inconclusive: 16.4 µM [activator, single point]
O=S(=O)(c1ccc(NC(=S)NN=C2CCCCC2)cc1)N1CCOCC1 | inactive
CCOC(=O)N/N=C/c1ccccc1F | inconclusive: 20.6 µM [activator, partial curve]
CCN(c1cccc(C(F)(F)F)c1)S(=O)(=O)c1ccc2c(c1)CCN2C(C)=O | inconclusive: 18.4 µM [inhibitor, partial curve, poor fit]
Cc1cc(C)n(-c2ccc(C(=O)N3CCN(S(=O)(=O)c4ccc(Cl)cc4)CC3)cc2)n1 | inconclusive: 20.6 µM [inhibitor, partial curve, poor fit]
Cc1cnc(C(=O)Nc2ccc(N3CCOCC3)cc2)cn1 | inconclusive: 16.4 µM [activator, partial curve]
Cc1ccc(-n2ncc3c2CCCC3NC(=O)CCN2CCCC2=O)cc1C (stereo not drawn) | inactive
Cc1cccn2c(=O)c3cc(C(=O)N4CCCCC4)sc3nc12 | inconclusive: 20.6 µM [activator, partial curve]
Cc1cc(C)n(-c2ccc(C(=O)OCC(=O)Nc3ccc([N+](=O)[O-])cc3)cc2)n1 | inactive
COC(=O)C1=CN(Cc2ccc(F)cc2)C=C(C(=O)OC)C1c1cc(OC)c(OC)c(OC)c1 | inactive
COc1ccc(N=C2C(=Nc3ccc(OC)cc3)N(c3ccc(N(C)C)cc3)C(=S)N2c2ccc(OC)cc2)cc1 | inconclusive: 4.61 µM [activator, full curve]
CCOC(=O)c1cnc(-n2nc(C)cc2C)nc1N(C)C | inconclusive: 10.3 µM [activator, partial curve]
COc1ccc(CN(CCC(c2ccco2)C(C)C)C(C)=O)cc1OC (stereo not drawn) | inconclusive: 13 µM [inhibitor, partial curve]
COc1ccc(CCNS(=O)(=O)c2cn(C)cn2)cc1OC | inconclusive: 23.1 µM [activator, partial curve, poor fit]
Cc1cc2ncn(C(=O)N3CCCCC3)c2cc1C | inconclusive: 15.8 µM [activator, single point]

Structure (SMILES) | Potency
CCOCCn1c(CN2CCN(c3ccc(F)cc3)CC2)nc2c1c(=O)n(C)c(=O)n2C | inconclusive: 29.1 µM [inhibitor, single point]
CCc1nc(C(N)=O)c2[nH]c(=O)n(-c3ccc(OC)cc3OC)c2n1 | inactive
O=C(COC(=O)/C=C/c1ccccc1[N+](=O)[O-])NNC(=O)c1ccc(F)cc1 | inconclusive: 11.6 µM [activator, single point]
Cc1ccc2nc(-c3ccc(NC(=O)COCC(=O)O)cc3)sc2c1 | inconclusive: 20.6 µM [activator, partial curve, poor fit]
CCOc1cc(NC(=S)NCC2CCCO2)c(OCC)cc1NC(=O)c1ccc(C)cc1 (stereo not drawn) | inactive
O=C(c1ccco1)N1CCN(CC(=O)N2CCCc3c2c(=O)oc2ccc(O)cc32)CC1 | inactive
COc1ccc(S(=O)(=O)Nc2cccc3c2O[C@H](CN(C)Cc2ccc(Oc4ccccc4)cc2)[C@@H](C)CN([C@H](C)CO)C3=O)cc1 | inactive
COc1ccc(-c2csc(NC(=O)c3c(OC)cccc3OC)n2)cc1 | inactive
CCn1nnnc1NCc1ccc(N2CCCC2)cc1 | inactive
COc1ccc(-c2cc3c(=O)n(CC(=O)NCc4ccc(F)cc4)ncn3n2)cc1 | inconclusive: 2.06 µM [activator, partial curve]
CCC(=O)c1ccc(N2CCN(C(=O)COc3ccc(F)cc3)CC2)c(F)c1 | inconclusive: 23.1 µM [inhibitor, single point]
O=[N+]([O-])c1ccc(O)c(CSc2nnnn2-c2ccccc2)c1 | inactive
Cc1nn(-c2ccccc2)c(C)c1/C=N/NC(=O)c1cc(-c2ccc(Br)s2)[nH]n1 | active: 8.2 µM
CC(=O)c1ccc(N2CCN(CC(=O)Nc3ccccc3C(=O)NC3CC3)CC2)c(F)c1 | inconclusive: 18.3 µM [inhibitor, partial curve, poor fit]
O=C(OCC(=O)N1CCc2ccccc2C1)c1cccnc1Cl | inconclusive: 20.6 µM [activator, single point]
COc1ccc(C2=CC(=O)C[C@H](c3ccc(OC)c(OC)c3)C2)cc1 | inconclusive: 11.6 µM [inhibitor, partial curve, poor fit]
Cc1ccc(S(=O)(=O)N2CCN(c3ccnc4cc(Cl)ccc34)CC2)cc1C | inconclusive: 18.3 µM [inhibitor, single point]
O=C(CN1CCN(S(=O)(=O)N2CCOCC2)CC1)Nc1ccc(Cl)c(Cl)c1 | inconclusive: 25.9 µM [inhibitor, single point]
O=C1NC2=C(CCc3ccccc32)C(c2ccc(Br)cc2)N1 (stereo not drawn) | inconclusive: 18.4 µM [inhibitor, partial curve, poor fit]
COc1ccc(N2CCN(CC(=O)NCc3ccc(Cl)cc3)CC2)cc1 | inactive
O=Cc1ccc(-c2cccc(C(=O)O)c2)o1 | inconclusive: 18.3 µM [activator, single point]
O=C(Cc1ccc(-c2ccccc2)cc1)Nc1ccccn1 | inconclusive: 29.1 µM [activator, single point]
Cc1cc(NS(=O)(=O)c2ccccc2)n(-c2ccccc2)n1 | inconclusive: 0.731 µM [activator, single point]

Reprinted from the entries so far, 3 compounds:
Structure (SMILES) | Potency
O=C(c1ccco1)N1CCN(CC(=O)N2CCCc3c2c(=O)oc2ccc(O)cc32)CC1 | inactive
COc1ccc(S(=O)(=O)Nc2cccc3c2O[C@H](CN(C)Cc2ccc(Oc4ccccc4)cc2)[C@@H](C)CN([C@H](C)CO)C3=O)cc1 | inactive
COc1ccc(-c2csc(NC(=O)c3c(OC)cccc3OC)n2)cc1 | inactive

Following part.

Structure (SMILES) | Potency
COc1ccc(-c2cc(-c3cccs3)c(C#N)c(SCC(=O)NCc3ccco3)n2)cc1 | inconclusive: 29.1 µM [activator, single point]
CN1CCN(NC(=O)CN2C(=O)/C(=C/c3ccccc3F)SC2=S)CC1 | inactive
Cc1[nH]c2ccccc2c1CN1CCc2ccccc2C1 | inconclusive: 32.6 µM [activator, partial curve, poor fit]
O=C(Nc1ccc2nsnc2c1)N1CCCCC1 | inconclusive: 18.4 µM [activator, partial curve]
Oc1ccccc1/C=N/Nc1cccc2cccnc12 | inconclusive: 10 µM [activator, partial curve]
CCN(C(=O)COC(=O)/C(=C/c1ccccc1)n1nnnc1C)C1CCCCC1 | inconclusive: 5.8 µM [inhibitor, single point]
O=C(Nc1ncc([N+](=O)[O-])s1)C1COc2ccccc2O1 (stereo not drawn) | inconclusive: 3.26 µM [activator, single point]
Cc1cc(C)n(-c2nc(-c3cccc(Cl)c3)cs2)n1 | inconclusive: 20.6 µM [activator, partial curve]
CSCCC(NC(=O)COc1ccccc1)C(=O)Nc1ccc(C)cc1 (stereo not drawn) | inconclusive: 23.1 µM [activator, partial curve, poor fit]
COc1cc(OC)cc(-c2cc3ccc(OC)cc3cn2)c1 | inconclusive: 0.58 µM [activator, full curve]
O=[N+]([O-])c1ccc(N2CCCCC2)cn1 | inconclusive: 20.6 µM [activator, partial curve, poor fit]
Cc1ccc(C(=O)Nc2ccc(N3CCN(S(C)(=O)=O)CC3)cc2)cc1C | inactive
O=C(NCC(=O)N1CCN(Cc2ccc3c(c2)OCO3)CC1)c1ccccc1F | inactive
COc1ccc(NC(C)=O)cc1S(=O)(=O)N1CCN(Cc2cccs2)CC1 | inactive
O=C(Cn1cnc2c(oc3ccccc32)c1=O)N1CCCC1 | inconclusive: 18.3 µM [activator, single point]
COc1cccc(-c2ccc3ncnc(NCc4ccc5c(c4)OCO5)c3c2)c1 | active: 8.2 µM
Cc1cccc(N(CC(=O)NCc2ccc(F)cc2)C(=O)c2ccco2)c1 | inactive
CCOC(=O)c1sc(NC(=O)Nc2ccccc2F)nc1C | inconclusive: 0.146 µM [activator, full curve, poor fit]
O=C(CCN1CCN(S(=O)(=O)c2ccc(F)cc2)CC1)Nc1ccccc1F | inactive
COc1ccc(-n2nc(C(=O)NCC(=O)NCCCN3CCOCC3)c3ccccc3c2=O)cc1OC | inactive
Cc1ccc(-c2nc(NCc3cccnc3)c3ccccc3n2)cc1 | inconclusive: 29.1 µM [inhibitor, single point]
c1ccn(-c2ccc(-c3ccn[nH]3)cc2)c1 | inconclusive: 14.6 µM [activator, partial curve]
